Test results: patent US20090258426A1
Results are given in words; binding and its absence hold for the method and conditions named. Some binding calls cover weakened binding; strength is not graded here.

Tests used:
[1] = biological target: neural thread protein (NTP), preparation not stated; test: peptide conjugated to rabbit IgG, assessed for NTP immunoreactivity
[2] = biological target: neural thread protein (NTP), native, in urine of patients (human); test: NTP-3 agarose affinity column
[3] = biological target: neural thread protein (NTP), native, in urine of patients (human); test: NTP-3 agarose affinity column, pH 2 eluate tested by 7C Gold strip and SDS gel

binding [1] | binding [2] | binding [3] | Binder
binds | – | – | LARLCLANFCGNNNV [Harlil peptide NTP-2]
binds | – | – | SHHARLIL [Harlil peptide NTP-8]
binds | – | – | CESARYRTGHHARLC (C* (C-terminal cysteine) blocked with Acetamido Methyl (C3H6NO)) [Harlil peptide NTP-6]
binds | – | – | DNTHHARLIL [Harlil peptide NTP-7]
binds | binds | binds | CARYRTGHHARLM [Harlil peptide NTP-3]
binds | – | – | LHARLCLANFCGRNRV [Harlil peptide NTP-1]
binds | – | – | HHARLPLANFCG [Harlil peptide NTP-4]
binds | – | – | RTGHHARLCLANFC (C* (the cysteine in H A R L C*L) blocked with Acetamido Methyl (C3H6NO)) [Harlil peptide NTP-5]
